Results are given in words; binding and its absence hold for the method and conditions named. A result given as binding can be weak or reduced; the word gives no strength.

Amino acid sequences for entries named in this document (tags omitted). A change or cut given only in a name is not applied to a line headed by its entry.
UniProt P00740: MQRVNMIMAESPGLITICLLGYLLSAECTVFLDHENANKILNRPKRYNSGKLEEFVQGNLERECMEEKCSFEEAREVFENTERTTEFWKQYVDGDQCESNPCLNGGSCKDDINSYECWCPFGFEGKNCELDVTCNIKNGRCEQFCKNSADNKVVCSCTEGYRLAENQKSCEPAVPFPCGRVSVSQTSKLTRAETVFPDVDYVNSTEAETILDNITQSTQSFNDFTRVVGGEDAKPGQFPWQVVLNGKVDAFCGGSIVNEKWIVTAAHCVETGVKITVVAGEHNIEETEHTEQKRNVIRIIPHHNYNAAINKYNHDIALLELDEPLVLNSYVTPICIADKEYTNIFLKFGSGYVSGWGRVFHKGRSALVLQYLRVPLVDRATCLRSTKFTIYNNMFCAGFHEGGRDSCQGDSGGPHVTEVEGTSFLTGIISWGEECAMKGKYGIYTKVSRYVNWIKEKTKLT

The target of assay [1] is Factor IXaβ (Enzyme Research Laboratories) (UniProt P00740). Briefly: ELISA, Factor IXa coated on plate (Fig. 5 legend). On the technique in general: ELISA stands for enzyme-linked immunosorbent assay.
For assay [2] the target is unchanged. Briefly: ELISA, Factor IXaβ coated at 1 µg/ml, absorbance at 405 nm.
Assay [3] has the same target. Put plainly: ELISA, Factor IXa coated at 1 µg/ml, anti-human IgG4 detection, absorbance at 650 nm.
The target is the same in assay [4]. Put plainly: ELISA, Factor IXaβ / Factor IXa coated at 1 µg/ml (both procedures of Example 7).

B1: humanized A69 antibody (hA69a) (antibody, human IgG4, V domains shown)
VH: QVQLVQSGAEVKKPGSSVKVSCKASGGTFSDYYMHWVRQAPGQGLEWMGYINPSSGYTKYNRKFRDRVTITADKSTSTAYMELSSLRSEDTAVYYCARGGNGYYLDYWGQGTTVTVSS
VL: DIVMTQSPSSLSASVGDRVTITCKASQNVGTAVAWYQQKPGKAPKLLIYSASYRYSGVPSRFSGSRYGTDFTLTISSLQPEDLATYYCQQYSNYITFGGGTKVEIK
As for B1, the binding result in assay [1] and in assay [2] was “binds” throughout.

B2: hA69-PF (humanized A69 antibody homodimer) (antibody, human IgG4, V domains shown)
VH: EVQLVQSGAEVVKPGSSVKVSCTASGYTFSDYYMHWVRQAPGEGLEWMGYINPSSGYTKYNRKFRDRVTITADKSTSTAYMELSSLRSEDTAVYYCARGGLGYYLDYWGEGTTVTVSS
VL: DIVMTQSPSSLSASVGDRVTITCKASQNVGTAVAWYQQKPGKAPKLLIYSASYRYSGVPSRFSGSRYGTDFTLTISSLQPEDLATYYCQQYSNYITFGQGTKVEIK
For B2, the binding entry in assay [1] and in assay [3] was “binds” each time.

B3: hA69-N97R (modified form of humanized A69 antibody) (antibody, V domains shown)
VH: QVQLVQSGAEVKKPGSSVKVSCKASGGTFSDYYMHWVRQAPGQGLEWMGYINPSSGYTKYNRKFRDRVTITADKSTSTAYMELSSLRSEDTAVYYCARGGRGYYLDYWGQGTTVTVSS
VL: DIVMTQSPSSLSASVGDRVTITCKASQNVGTAVAWYQQKPGKAPKLLIYSASYRYSGVPSRFSGSRYGTDFTLTISSLQPEDLATYYCQQYSNYITFGGGTKVEIK
modifications: N-terminal glutamine assumed to be pyroglutamylated (Pyr(Q) at H1)
Consider B3, for which the binding result in assay [4] and in assay [1] was “binds” in each case.

B4: hA69-p18 (modified form of humanized A69 antibody) (antibody, V domains shown)
VH: QVQLVQSGAEVKKPGSSVKVSCKASGGTFSDYYMHWVRQAPGEGLEWMGYINPSSGYTKYNRKFRDRVTITADKSTSTAYMELSSLRSEDTAVYYCARGGNGYYLDYWGEGTTVTVSS
VL: DIVMTQSPSSLSASVGDRVTITCKASQNVGTAVAWYQQKPGKAPKLLIYSASYRYSGVPSRFSGSRYGTDFTLTISSLQPEDLATYYCQQYSNYITFGGGTKVEIK
modifications: N-terminal glutamine assumed to be pyroglutamylated (Pyr(Q) at H1)
B4: the binding entry in assay [1] and in assay [3] was “binds” in each case.

For the origin of these results see patent EP4793360A2.
